The source of these data is PMC10775494.

Chains of the proteins cited; added tags and fusions are not shown. Lines headed by an entry give the natural chain unless they say otherwise; changes in a name come on top.
UniProt G4MW61: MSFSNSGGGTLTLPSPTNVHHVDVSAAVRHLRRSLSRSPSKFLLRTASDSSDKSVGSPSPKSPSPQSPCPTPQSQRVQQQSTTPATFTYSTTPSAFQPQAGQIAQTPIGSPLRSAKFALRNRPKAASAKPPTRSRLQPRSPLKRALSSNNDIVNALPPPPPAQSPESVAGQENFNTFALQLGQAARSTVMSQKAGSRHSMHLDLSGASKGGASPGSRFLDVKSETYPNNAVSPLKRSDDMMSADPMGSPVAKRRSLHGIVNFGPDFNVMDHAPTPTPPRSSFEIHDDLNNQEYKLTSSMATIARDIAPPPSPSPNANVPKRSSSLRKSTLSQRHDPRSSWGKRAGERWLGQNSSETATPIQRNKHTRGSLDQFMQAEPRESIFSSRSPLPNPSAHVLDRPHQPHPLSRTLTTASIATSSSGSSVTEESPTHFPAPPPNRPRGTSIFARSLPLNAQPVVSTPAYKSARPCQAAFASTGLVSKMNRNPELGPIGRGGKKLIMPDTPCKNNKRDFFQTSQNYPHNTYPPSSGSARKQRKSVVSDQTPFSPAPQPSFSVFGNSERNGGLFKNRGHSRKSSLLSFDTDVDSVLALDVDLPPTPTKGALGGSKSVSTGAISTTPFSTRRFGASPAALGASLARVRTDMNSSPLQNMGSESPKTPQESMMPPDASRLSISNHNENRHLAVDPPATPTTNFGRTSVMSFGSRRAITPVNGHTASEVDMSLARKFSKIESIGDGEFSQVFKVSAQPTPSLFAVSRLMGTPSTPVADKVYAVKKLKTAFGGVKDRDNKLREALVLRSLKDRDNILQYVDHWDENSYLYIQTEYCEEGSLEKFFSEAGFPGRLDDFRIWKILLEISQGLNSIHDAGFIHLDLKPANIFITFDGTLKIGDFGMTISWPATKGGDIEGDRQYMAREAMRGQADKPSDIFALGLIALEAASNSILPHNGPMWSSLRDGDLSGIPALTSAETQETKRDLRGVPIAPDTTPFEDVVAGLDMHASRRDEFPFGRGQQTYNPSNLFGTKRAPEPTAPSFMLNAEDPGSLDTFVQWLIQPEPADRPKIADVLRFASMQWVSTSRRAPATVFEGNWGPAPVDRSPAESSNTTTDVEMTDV
UniProt G4N374: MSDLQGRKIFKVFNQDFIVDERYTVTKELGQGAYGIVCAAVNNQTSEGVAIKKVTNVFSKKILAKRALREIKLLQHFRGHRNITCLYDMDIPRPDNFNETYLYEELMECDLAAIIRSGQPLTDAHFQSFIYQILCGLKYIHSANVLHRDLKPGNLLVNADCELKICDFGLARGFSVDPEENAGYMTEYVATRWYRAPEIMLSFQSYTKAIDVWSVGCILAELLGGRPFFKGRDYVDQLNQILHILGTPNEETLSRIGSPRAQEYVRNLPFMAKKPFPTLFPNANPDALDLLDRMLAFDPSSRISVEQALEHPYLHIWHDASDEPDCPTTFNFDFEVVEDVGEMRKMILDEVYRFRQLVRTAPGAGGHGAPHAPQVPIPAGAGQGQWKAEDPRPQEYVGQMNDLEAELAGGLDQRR

This experiment has as its target MoSwe1-YFPN (M. oryzae) (UniProt G4MW61). Description: split reporter.

These are yes or no findings as the source states them, for the method shown. In cells and extracts the contact can be indirect. A result given as binding can be weak or reduced; the word gives no strength.

On to MoMps1-YFPC (from UniProt G4N374 1-415), for which the binding entry was “binds”.
